Measurements: PMC7819943, “Rice protein-binding microarrays: a tool to detect cis-acting elements near promoter regions in rice”
Some of the results follow.

The chains behind the UniProt entries cited, without tags or fusion partners.
UniProt Q0JBA9, entry or part of it: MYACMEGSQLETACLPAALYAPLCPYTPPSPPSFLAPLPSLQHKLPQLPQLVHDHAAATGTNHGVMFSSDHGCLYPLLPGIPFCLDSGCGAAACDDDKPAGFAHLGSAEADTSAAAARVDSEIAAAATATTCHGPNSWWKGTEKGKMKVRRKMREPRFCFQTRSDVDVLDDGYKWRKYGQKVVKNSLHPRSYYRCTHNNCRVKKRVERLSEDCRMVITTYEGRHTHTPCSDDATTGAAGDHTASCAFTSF

What follows are sequences tested against OsWRKY34 (Oryza sativa, UniProt Q0JBA9 1-250) (assay: protein-binding microarray (RPBM); PBS, 2% BSA, 51.3 ng/ul salmon testes DNA, 50 uM zinc acetate, 200 nM TF, 25 C, 1 h; high values mean tight binding). Details: protein: recombinant; tags: N-terminal polyhistidine and DsRed monomer fusion (pET32a); label: CyDye5-dUTP incorporated in the synthesized complementary strand; 3' TTTTT single-stranded linker to array surface; dsDNA, one strand shown.
Outline: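 Binding signal here means per-feature fluorescence intensity in arbitrary units. The values were read on an Axon 4000B scanner after a custom Agilent array, double-stranded by primer extension with Cy5-dUTP, was incubated with 200 nM protein at 25 °C for 1 h in PBS with 2% BSA, salmon testes DNA and 50 µM zinc acetate, then washed. The proteins were transcription factors with an N-terminal polyhistidine tag and DsRed, expressed in E. coli BL21-CodonPlus and purified on Ni–NTA.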
In the case of “TTAACCTCTCTCTTAATTTCAGTTTGTTTGTTCGTTCGTTCGGAGTCACCTAGTGCAG”, the binding signal is reported as 9010 fluorescence intensity (a.u.).
For “TCGTGGGGCGTGGTTGGAGGTTCGCTCAAGTCGTGGTCGTCGGAGTCACCTAGTGCAG”, the binding signal was 10200 fluorescence intensity (a.u.).
“TGTATCCTCGAGCTACAGATACGCTGGTCCTTGGAATTTTCGGAGTCACCTAGTGCAG” was tested, and the binding signal was 8170 fluorescence intensity (a.u.).
With “GTTCCCCTCGTGCCGCCCGCCTCCGCCGTCGCGTCCCCGCCGGAGTCACCTAGTGCAG” the binding signal was 8300 fluorescence intensity (a.u.).
With “AGTAAATTTGTGCCCATTTCACGGTAGTACATCATCTTTCCGGAGTCACCTAGTGCAG” the binding signal was 10900 fluorescence intensity (a.u.).
In the case of “CTCGTCACTCGTCTCGTCTCGCACAGTCGCAGCTGCTGCGCGGAGTCACCTAGTGCAG”, the binding signal is reported as 8390 fluorescence intensity (a.u.).
For “GGAGGGGTGGAAGGAGGGTGGTAGGAGGAATTAGATGTGTCGGAGTCACCTAGTGCAG”, the binding signal was 11000 fluorescence intensity (a.u.).
With “TTCTATCTAACGTGCTCCAATCGTATTTTTCTCGTATACACGGAGTCACCTAGTGCAG” the binding signal was 11500 fluorescence intensity (a.u.).
In the case of “GGTCATGCATGGGCGATGGGCCTTGTCTGTACTCTCTCTACGGAGTCACCTAGTGCAG”, the binding signal is reported as 8740 fluorescence intensity (a.u.).
“CCCTGCGTTCCGGCCCCACATGCAGTCTCACACCGCACCTCGGAGTCACCTAGTGCAG” was tested, and the binding signal was 10900 fluorescence intensity (a.u.).
In the case of “TGTAGGCCCCACCTCACCACAACCGTCAGTTTTCCTTGCTCGGAGTCACCTAGTGCAG”, the binding signal is reported as 10700 fluorescence intensity (a.u.).
In the case of “AGATCAGGTTTTCTCTTTGGTTGATTGTGTGTGGAAGATCCGGAGTCACCTAGTGCAG”, the binding signal is reported as 10100 fluorescence intensity (a.u.).
For “GGGCGACTGGTAATGTGTGCACTTTGACCAATCTTTTTCGCGGAGTCACCTAGTGCAG”, the binding signal was 12800 fluorescence intensity (a.u.).
With “CAGCCAATCACCAAAATATATTTTGCATTGTGAGGAGGGGCGGAGTCACCTAGTGCAG” the binding signal was 8760 fluorescence intensity (a.u.).
In the case of “GACGGCCGCCGCCATGCTACTGCCGAGGCGTCTTCCTCTTCGGAGTCACCTAGTGCAG”, the binding signal is reported as 8160 fluorescence intensity (a.u.).
In the case of “CCCTTTGCCTCCGCTTTTATCCCACCCGACGATGCATCGGCGGAGTCACCTAGTGCAG”, the binding signal is reported as 8300 fluorescence intensity (a.u.).
“GTTTTCTCTTAGTTTGTCCATCTTTGTCATTTTGCGCTGTCGGAGTCACCTAGTGCAG” was tested, and the binding signal was 11600 fluorescence intensity (a.u.).
For “AGGGACCCTCGGTGTACTTTTTCCAGCTAGGTTTGTTTTTCGGAGTCACCTAGTGCAG”, the binding signal was 8900 fluorescence intensity (a.u.).
“CATCATGCCAGTCATCCACTCCACACCACCACACACTCCCCGGAGTCACCTAGTGCAG” was tested, and the binding signal was 8660 fluorescence intensity (a.u.).
With “TCTCTCTTCTCTCTTATTTTTTTCGCACGTGTTTATAGCTCGGAGTCACCTAGTGCAG” the binding signal was 8940 fluorescence intensity (a.u.).
In the case of “AATAGCCAATTCATACAATAGTTACGTACTACACTATTAACGGAGTCACCTAGTGCAG”, the binding signal is reported as 8860 fluorescence intensity (a.u.).
In the case of “AACACACATCAACCTGACAACCCATCGATGCACATCCATCCGGAGTCACCTAGTGCAG”, the binding signal is reported as 10300 fluorescence intensity (a.u.).
For “AGATTGTCTTCATATTCCTGCCTTCTTTGTATACAAACTTCGGAGTCACCTAGTGCAG”, the binding signal was 9500 fluorescence intensity (a.u.).
For “TTATAGTTTATTTTCTGAATTCTCCATATACATTCTCTACCGGAGTCACCTAGTGCAG”, the binding signal was 8470 fluorescence intensity (a.u.).
With “CGCCGCCATTGTTCCCTTAGTCCTCCCATTACCGCGAGCCCGGAGTCACCTAGTGCAG” the binding signal was 8860 fluorescence intensity (a.u.).
“ACCCTAGCGATTTATTGGCATCCATGTTCCGATCCCTCCACGGAGTCACCTAGTGCAG” was tested, and the binding signal was 8510 fluorescence intensity (a.u.).
“CAACACACTACCCTGTCTTTTTTTTTGTGCCTTTTCTTTCCGGAGTCACCTAGTGCAG” was tested, and the binding signal was 11600 fluorescence intensity (a.u.).
“GGGCTGCGCTGGGTTGGGAGGACGGTTTGGTCAATGGACTCGGAGTCACCTAGTGCAG” was tested, and the binding signal was 9140 fluorescence intensity (a.u.).
“ACGGTCGGACTCATGGGTGTACTGAACTGCAACGGCATTCCGGAGTCACCTAGTGCAG” was tested, and the binding signal was 8140 fluorescence intensity (a.u.).
For “ATCCGTGTTGTAGCCGGCTACAAATCTGTAGTCCGCTTTCCGGAGTCACCTAGTGCAG”, the binding signal was 8260 fluorescence intensity (a.u.).
For “CTCACAATATTTTTTTGGCACTCATTGGCACTTGTCTTCTCGGAGTCACCTAGTGCAG”, the binding signal was 8770 fluorescence intensity (a.u.).
In the case of “TCCGCCGCCGCCGGTCGCCCCAGGTTATCCCGCTCCCGCACGGAGTCACCTAGTGCAG”, the binding signal is reported as 8030 fluorescence intensity (a.u.).
In the case of “CTTTTTTTTTCGTACACATGTTTTTCATACAGTCAAACTACGGAGTCACCTAGTGCAG”, the binding signal is reported as 8580 fluorescence intensity (a.u.).
With “ACAGATGGAGTAGTGTCTTATAAGTTTTTTTTTCCGGTTTCGGAGTCACCTAGTGCAG” the binding signal was 8380 fluorescence intensity (a.u.).
For “GTTACCGTCCTGTTGGCTGGTTATAACCGTTGTTGTCGTTCGGAGTCACCTAGTGCAG”, the binding signal was 11600 fluorescence intensity (a.u.).
For “AACGTTGGAAAAAAGTCAACGACTTCGTACATTAAAATATCGGAGTCACCTAGTGCAG”, the binding signal was 9050 fluorescence intensity (a.u.).
With “GGCCGATTCGATGTTAGACTTCTCCTGGTTTTGTGTGTTACGGAGTCACCTAGTGCAG” the binding signal was 12400 fluorescence intensity (a.u.).
“AGGTTACATATGTTCTCTTCTTTCCCTGATCCTTTTCCTACGGAGTCACCTAGTGCAG” was tested, and the binding signal was 8510 fluorescence intensity (a.u.).
For “CGCCTCGTCTGCGACTGACCGCCGTCGCTCGTCCGCGTTCCGGAGTCACCTAGTGCAG”, the binding signal was 8690 fluorescence intensity (a.u.).
For “TATTTGCCTATCCCTATCAATTATCATGTTTAAATTTTCACGGAGTCACCTAGTGCAG”, the binding signal was 9230 fluorescence intensity (a.u.).
With “CCGATCAACGTTTAATGTGACACCTATAAATTTCTCTTTTCGGAGTCACCTAGTGCAG” the binding signal was 9060 fluorescence intensity (a.u.).
For “CCTCCGGCCTCCACCCGCCGTCGTCCGTCGCCGTTGCGCGCGGAGTCACCTAGTGCAG”, the binding signal was 10000 fluorescence intensity (a.u.).
In the case of “CCCCTGACCTTTCTCACCTGTTGAATGTTATTATTTGGTACGGAGTCACCTAGTGCAG”, the binding signal is reported as 8120 fluorescence intensity (a.u.).
In the case of “CTCTTTGTTTTGGTCCTCATGTTTTTAAAATTTATGTGGACGGAGTCACCTAGTGCAG”, the binding signal is reported as 9990 fluorescence intensity (a.u.).
With “CTGGAGGGAGGGAGCACGGGAGTGGGAGGGGAGGCGCCGACGGAGTCACCTAGTGCAG” the binding signal was 11300 fluorescence intensity (a.u.).
In the case of “ATTTTGATTTGCTCTCGGCTCTCTCGTTCGTGTGCACATCCGGAGTCACCTAGTGCAG”, the binding signal is reported as 8110 fluorescence intensity (a.u.).
In the case of “ATCGAACGTTTGACCGGATGTCTGAAGGGGTTTTTGGACACGGAGTCACCTAGTGCAG”, the binding signal is reported as 10000 fluorescence intensity (a.u.).
In the case of “CCAACGTGTCCACTCACGGCTTACACGTGCCACGCCCATCCGGAGTCACCTAGTGCAG”, the binding signal is reported as 8580 fluorescence intensity (a.u.).
With “AAATAACCTAAGTTCACTATTGAAATGGCCTATTTTCTTACGGAGTCACCTAGTGCAG” the binding signal was 8590 fluorescence intensity (a.u.).
In the case of “CGTTGACTTTTTATCAAATGTTTGACCGTTCGTCTTATTTCGGAGTCACCTAGTGCAG”, the binding signal is reported as 28900 fluorescence intensity (a.u.).
In the case of “CATCGATGAACATTCAACAAATCTTCGGGGTGGGTTACACCGGAGTCACCTAGTGCAG”, the binding signal is reported as 8900 fluorescence intensity (a.u.).
With “AATTCCTGGACCTTAACTCACACGCAATTCCATCCTCCCTCGGAGTCACCTAGTGCAG” the binding signal was 8620 fluorescence intensity (a.u.).
With “CCGGACCAGCCCAACCATTTCGTCGAGCACCTCACGCACGCGGAGTCACCTAGTGCAG” the binding signal was 9520 fluorescence intensity (a.u.).
With “TTGGGGAAGGTGGTGGCGCACATTGGATGGGGCAGGAGGGCGGAGTCACCTAGTGCAG” the binding signal was 9060 fluorescence intensity (a.u.).
